Source: paper PMC4864424

Protein sequences, listed by entry. Tags and fused reporters are not part of them. Lines headed by an entry give the natural chain unless they say otherwise; changes in a name come on top. Residues count along the entry.
UniProt Q96QP1: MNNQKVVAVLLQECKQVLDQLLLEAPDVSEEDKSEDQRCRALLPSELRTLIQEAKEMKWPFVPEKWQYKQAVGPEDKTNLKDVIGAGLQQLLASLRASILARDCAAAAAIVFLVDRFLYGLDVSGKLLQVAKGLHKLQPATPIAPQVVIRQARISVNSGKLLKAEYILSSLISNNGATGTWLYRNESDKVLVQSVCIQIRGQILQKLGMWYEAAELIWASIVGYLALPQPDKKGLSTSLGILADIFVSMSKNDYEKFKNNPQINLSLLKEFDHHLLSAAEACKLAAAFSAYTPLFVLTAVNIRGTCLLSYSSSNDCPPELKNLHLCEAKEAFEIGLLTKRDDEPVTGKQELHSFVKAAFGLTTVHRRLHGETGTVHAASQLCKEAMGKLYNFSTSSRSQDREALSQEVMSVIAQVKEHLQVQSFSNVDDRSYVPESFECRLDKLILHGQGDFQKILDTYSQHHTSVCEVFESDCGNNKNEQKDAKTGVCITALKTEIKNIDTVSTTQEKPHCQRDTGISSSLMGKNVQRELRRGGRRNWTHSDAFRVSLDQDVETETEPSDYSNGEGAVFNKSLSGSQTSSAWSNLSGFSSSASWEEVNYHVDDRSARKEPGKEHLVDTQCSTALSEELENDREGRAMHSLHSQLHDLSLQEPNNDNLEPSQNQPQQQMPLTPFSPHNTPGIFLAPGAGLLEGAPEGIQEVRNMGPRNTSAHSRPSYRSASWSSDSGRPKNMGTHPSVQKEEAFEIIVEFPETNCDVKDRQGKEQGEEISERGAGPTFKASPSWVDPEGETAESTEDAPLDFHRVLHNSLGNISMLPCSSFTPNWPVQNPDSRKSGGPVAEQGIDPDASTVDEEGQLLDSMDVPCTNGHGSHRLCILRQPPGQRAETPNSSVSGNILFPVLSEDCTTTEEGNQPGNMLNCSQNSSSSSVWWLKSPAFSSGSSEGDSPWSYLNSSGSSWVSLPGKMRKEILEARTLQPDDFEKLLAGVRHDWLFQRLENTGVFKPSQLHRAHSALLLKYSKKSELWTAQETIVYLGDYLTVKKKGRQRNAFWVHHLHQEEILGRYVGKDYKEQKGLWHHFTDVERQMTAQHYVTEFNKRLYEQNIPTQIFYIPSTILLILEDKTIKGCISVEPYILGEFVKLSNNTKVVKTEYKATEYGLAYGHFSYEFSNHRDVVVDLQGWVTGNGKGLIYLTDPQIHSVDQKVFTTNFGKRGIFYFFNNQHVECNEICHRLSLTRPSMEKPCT
HA-ALPK1 N-terminal (Nt, 1-569 a.a.): residues 1-569 of Q96QP1
HA-ALPK1 Nt1 (1-271 a.a.): residues 1-271 of Q96QP1
HA-ALPK1 Nt2 (249-569 a.a.): residues 249-569 of Q96QP1
HA-ALPK1 middle region (mid, 432-961 a.a.): residues 432-961 of Q96QP1
HA-ALPK1 C-terminal region (Ct, 950-1244 a.a.): residues 950-1244 of Q96QP1
UniProt P62136: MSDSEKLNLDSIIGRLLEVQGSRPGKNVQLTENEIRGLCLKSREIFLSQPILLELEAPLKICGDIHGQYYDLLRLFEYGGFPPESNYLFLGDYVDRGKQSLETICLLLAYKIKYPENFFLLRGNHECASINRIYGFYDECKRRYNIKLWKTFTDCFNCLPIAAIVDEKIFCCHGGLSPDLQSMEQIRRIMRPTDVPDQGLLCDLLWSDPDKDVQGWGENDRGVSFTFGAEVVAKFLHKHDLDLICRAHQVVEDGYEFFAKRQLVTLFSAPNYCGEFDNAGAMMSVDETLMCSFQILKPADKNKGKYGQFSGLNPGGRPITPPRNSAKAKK
UniProt O43150: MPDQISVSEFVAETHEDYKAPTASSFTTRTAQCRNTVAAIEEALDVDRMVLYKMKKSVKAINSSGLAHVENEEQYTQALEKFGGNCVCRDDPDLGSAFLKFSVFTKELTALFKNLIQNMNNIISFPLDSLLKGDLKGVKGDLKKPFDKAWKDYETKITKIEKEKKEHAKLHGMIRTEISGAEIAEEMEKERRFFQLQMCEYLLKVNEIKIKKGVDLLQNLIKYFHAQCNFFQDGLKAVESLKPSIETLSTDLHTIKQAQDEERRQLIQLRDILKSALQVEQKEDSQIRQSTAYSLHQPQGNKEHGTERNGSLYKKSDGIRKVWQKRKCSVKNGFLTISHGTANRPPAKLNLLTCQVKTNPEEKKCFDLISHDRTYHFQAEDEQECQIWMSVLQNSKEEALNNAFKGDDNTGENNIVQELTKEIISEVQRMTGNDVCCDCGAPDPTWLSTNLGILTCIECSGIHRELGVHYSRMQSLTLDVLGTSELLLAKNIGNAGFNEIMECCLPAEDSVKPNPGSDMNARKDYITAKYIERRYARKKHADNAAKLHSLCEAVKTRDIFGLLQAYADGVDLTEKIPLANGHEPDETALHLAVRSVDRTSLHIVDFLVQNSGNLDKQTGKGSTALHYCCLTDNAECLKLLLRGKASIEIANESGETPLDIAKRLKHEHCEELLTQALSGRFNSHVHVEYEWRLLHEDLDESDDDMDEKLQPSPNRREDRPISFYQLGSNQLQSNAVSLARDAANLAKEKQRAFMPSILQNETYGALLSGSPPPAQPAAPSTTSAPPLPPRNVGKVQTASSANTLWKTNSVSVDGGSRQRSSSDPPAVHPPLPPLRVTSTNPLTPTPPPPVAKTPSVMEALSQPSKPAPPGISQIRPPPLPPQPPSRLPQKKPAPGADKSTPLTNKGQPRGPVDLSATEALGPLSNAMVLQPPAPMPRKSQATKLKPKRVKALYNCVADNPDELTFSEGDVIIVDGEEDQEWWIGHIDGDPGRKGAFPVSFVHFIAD
UniProt Q6S8J3: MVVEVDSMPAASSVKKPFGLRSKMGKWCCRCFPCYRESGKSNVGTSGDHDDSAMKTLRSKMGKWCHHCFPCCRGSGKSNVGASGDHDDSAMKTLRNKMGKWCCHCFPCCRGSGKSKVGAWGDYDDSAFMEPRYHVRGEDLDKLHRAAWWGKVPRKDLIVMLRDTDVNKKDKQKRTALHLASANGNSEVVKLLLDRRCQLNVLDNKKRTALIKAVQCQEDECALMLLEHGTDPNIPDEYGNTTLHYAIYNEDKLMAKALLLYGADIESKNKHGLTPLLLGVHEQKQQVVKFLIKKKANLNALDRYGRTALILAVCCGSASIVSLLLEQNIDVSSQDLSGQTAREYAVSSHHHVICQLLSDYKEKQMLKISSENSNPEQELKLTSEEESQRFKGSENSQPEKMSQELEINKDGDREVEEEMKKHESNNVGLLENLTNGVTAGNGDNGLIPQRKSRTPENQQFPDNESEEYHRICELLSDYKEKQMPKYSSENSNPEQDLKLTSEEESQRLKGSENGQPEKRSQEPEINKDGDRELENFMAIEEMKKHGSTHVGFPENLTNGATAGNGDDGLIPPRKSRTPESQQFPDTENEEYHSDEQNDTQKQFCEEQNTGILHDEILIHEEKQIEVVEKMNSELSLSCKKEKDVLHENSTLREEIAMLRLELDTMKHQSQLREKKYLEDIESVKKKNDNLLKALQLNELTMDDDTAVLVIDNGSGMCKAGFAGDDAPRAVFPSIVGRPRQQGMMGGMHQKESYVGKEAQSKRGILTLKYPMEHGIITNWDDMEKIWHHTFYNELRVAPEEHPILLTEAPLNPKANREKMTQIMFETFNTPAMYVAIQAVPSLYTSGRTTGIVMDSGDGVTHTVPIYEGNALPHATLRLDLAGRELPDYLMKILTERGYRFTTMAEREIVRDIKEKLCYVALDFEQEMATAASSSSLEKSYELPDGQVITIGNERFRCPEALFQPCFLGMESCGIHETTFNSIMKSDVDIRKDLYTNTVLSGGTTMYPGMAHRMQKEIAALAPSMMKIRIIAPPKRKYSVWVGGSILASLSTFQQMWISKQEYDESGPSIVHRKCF
UniProt P47756: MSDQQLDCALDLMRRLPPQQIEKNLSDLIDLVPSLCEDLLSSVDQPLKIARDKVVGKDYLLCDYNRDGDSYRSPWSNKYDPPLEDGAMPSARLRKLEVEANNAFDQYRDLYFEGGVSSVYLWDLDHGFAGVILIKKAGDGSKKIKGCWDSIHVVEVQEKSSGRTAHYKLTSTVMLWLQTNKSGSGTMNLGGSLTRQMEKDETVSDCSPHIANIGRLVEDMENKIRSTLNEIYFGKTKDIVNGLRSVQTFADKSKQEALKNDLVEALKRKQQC
UniProt P35579: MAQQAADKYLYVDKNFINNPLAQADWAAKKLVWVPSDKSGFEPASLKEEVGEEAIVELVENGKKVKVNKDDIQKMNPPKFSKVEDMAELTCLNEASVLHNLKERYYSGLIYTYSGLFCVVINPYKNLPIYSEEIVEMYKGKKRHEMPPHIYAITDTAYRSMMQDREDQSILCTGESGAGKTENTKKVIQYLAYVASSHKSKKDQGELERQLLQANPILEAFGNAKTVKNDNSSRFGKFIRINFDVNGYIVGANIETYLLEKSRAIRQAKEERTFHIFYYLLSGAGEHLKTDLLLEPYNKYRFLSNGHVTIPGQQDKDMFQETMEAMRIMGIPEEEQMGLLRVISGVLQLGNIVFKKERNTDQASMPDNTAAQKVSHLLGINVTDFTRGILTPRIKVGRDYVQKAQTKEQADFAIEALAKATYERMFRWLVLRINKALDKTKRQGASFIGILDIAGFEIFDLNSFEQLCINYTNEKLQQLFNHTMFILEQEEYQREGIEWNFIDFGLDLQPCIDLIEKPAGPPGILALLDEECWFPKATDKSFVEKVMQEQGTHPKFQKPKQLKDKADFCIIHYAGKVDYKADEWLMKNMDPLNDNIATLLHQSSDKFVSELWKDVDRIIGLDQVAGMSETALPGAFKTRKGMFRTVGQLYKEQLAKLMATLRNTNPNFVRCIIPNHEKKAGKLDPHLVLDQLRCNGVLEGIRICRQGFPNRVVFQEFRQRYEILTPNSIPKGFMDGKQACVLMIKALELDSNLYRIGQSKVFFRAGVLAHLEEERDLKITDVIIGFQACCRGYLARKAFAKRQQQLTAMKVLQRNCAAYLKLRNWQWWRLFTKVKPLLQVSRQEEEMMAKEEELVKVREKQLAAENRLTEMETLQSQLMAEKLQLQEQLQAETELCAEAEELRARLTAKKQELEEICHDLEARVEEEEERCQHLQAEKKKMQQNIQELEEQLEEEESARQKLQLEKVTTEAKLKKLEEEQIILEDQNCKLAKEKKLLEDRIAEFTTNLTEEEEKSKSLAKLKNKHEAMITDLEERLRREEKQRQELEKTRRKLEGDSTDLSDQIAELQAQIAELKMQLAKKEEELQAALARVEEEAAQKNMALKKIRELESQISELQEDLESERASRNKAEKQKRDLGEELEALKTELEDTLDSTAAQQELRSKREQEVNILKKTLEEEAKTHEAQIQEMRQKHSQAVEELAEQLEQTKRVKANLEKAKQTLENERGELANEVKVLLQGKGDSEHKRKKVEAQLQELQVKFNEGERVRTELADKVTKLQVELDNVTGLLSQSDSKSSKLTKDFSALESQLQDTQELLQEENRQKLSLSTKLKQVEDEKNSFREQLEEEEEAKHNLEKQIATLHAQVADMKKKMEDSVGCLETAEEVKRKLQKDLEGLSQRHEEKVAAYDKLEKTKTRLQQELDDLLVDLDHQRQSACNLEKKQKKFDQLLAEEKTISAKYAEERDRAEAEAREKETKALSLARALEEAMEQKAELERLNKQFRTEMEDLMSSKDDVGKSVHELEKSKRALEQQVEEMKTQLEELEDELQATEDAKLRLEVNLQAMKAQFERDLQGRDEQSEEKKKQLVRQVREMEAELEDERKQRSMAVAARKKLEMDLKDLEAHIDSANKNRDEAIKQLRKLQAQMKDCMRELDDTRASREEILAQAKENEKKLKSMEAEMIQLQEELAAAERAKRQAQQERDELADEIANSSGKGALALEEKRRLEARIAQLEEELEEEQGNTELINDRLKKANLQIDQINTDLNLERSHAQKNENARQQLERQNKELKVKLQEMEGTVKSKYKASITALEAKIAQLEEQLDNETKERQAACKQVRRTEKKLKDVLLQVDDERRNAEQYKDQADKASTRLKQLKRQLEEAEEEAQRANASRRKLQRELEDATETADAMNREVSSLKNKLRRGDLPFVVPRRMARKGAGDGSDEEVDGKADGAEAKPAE
UniProt Q9P0M2: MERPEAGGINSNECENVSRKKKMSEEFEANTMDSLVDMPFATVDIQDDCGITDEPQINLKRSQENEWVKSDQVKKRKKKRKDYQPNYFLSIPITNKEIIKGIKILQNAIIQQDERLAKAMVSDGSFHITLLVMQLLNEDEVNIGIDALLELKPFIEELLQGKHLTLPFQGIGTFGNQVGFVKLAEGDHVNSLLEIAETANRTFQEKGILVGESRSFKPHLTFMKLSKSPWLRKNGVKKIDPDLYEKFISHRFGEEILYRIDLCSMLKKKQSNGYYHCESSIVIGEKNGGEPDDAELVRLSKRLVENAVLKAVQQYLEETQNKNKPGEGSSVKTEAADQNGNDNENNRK

Tests used:
[1] = biological target: HA-ALPK1 C-terminal region (Ct, 950-1244 a.a.) (human) (UniProt Q96QP1); assay: affinity purification with mass spectrometry; immunoprecipitation of HA-ALPK1 FL and five truncated forms (Nt, Nt1, Nt2, Mid, Ct), cellular proteins identified by LC/MS/MS; three replicates for each form
[2] = biological target: HA-ALPK1 full-length (FL, 1-1244 a.a.) (human) (UniProt Q96QP1); assay: as above
[3] = biological target: Halo-ALPK1 full-length (FL) recombinant protein (human) (UniProt Q96QP1); assay: affinity purification with mass spectrometry; Halo-tagged ALPK1 purified from 293F incubated overnight with 300 ug THP-1 protein lysate, HaloLink resin 4 C 4 h, washed with lysis buffer with 0.01% tween-20, eluted by TEV protease cleavage, UPLC-MS/MS; five independent experiments; only the target purified
[4] = biological target: HA-ALPK1 N-terminal (Nt, 1-569 a.a.) (human) (UniProt Q96QP1); assay: affinity purification with mass spectrometry; immunoprecipitation of HA-ALPK1 FL and five truncated forms (Nt, Nt1, Nt2, Mid, Ct), cellular proteins identified by LC/MS/MS; three replicates for each form
[5] = biological target: HA-ALPK1 Nt1 (1-271 a.a.) (human) (UniProt Q96QP1); assay: as above
[6] = biological target: HA-ALPK1 Nt2 (249-569 a.a.) (human) (UniProt Q96QP1); assay: as above
[7] = biological target: HA-ALPK1 middle region (mid, 432-961 a.a.) (human) (UniProt Q96QP1); assay: as above

Measured: binding

Protein phosphatase I alpha subunit partial (from UniProt P62136 1-330)
binds: [1] | [2] | [3]

Arf-GAP with SH3 domain, ANK repeat and PH domain-containing protein 2 isoform a (from UniProt O43150 1-1006)
not listed: [7]
binds: all other assays above

POTE ankyrin domain family member E (from UniProt Q6S8J3 1-1075)
not listed: [6]
binds: all other assays above

F-actin-capping protein subunit beta isoform 1 (from UniProt P47756 1-272)
binds: [4] | [5] | [2] | [3]

Myosin-9 (endogenous myosin IIA) (from UniProt P35579 1-1960)
binds: [4] | [5] | [2] | [3]

A-kinase anchoring protein 18 gamma (from UniProt Q9P0M2 1-348)
binds: [1] | [2] | [7] | [3]

B1: gp180-carboxypeptidase D-like enzyme (enzyme, UniProt O75976 32-1380)
chain: AHIKKAEATTTTTSAGAEAAEGQFDRYYHEEELESALREAAAAGLPGLARLFSIGRSVEGRPLWVLRLTAGLGSLIPEGDAGPDAAGPDAAGPLLPGRPQVKLVGNMHGDETVSRQVLIYLARELAAGYRRGDPRLVRLLNTTDVYLLPSLNPDGFERAREGDCGFGDGGPSGASGRDNSRGRDLNRSFPDQFSTGEPPALDEVPEVRALIEWIRRNKFVLSGNLHGGSVVASYPFDDSPEHKATGIYSKTSDDEVFKYLAKAYASNHPIMKTGEPHCPGDEDETFKDGITNGAHWYDVEGGMQDYNYVWANCFEITLELSCCKYPPASQLRQEWENNRESLITLIEKVHIGVKGFVKDSITGSGLENATISVAGINHNITTGRFGDFYRLLVPGTYNLTVVLTGYMPLTVTNVVVKEGPATEVDFSLRPTVTSVIPDTTEAVSTASTVAIPNILSGTSSSYQPIQPKDFHHHHFPDMEIFLRRFANEYPNITRLYSLGKSVESRELYVMEISDNPGVHEPGEPEFKYIGNMHGNEVVGRELLLNLIEYLCKNFGTDPEVTDLVHNTRIHLMPSMNPDGYEKSQEGDSISVIGRNNSNNFDLNRNFPDQFVQITDPTQPETIAVMSWMKSYPFVLSANLHGGSLVVNYPFDDDEQGLATYSKSPDDAVFQQIALSYSKENSQMFQGRPCKNMYPNEYFPHGITNGASWYNVPGGMQDWNYLQTNCFEVTIELGCVKYPLEKELPNFWEQNRRSLIQFMKQVHQGVRGFVLDATDGRGILNATISVAEINHPVTTYKTGDYWRLLVPGTYKITASARGYNPVTKNVTVKSEGAIQVNFTLVRSSTDSNNESKKGKGASSSTNDASDPTTKEFETLIKDLSAENGLESLMLRSSSNLALALYRYHSYKDLSEFLRGLVMNYPHITNLTNLGQSTEYRHIWSLEISNKPNVSEPEEPKIRFVAGIHGNAPVGTELLLALAEFLCLNYKKNPAVTQLVDRTRIVIVPSLNPDGRERAQEKDCTSKIGQTNARGKDLDTDFTNNASQPETKAIIENLIQKQDFSLSVALDGGSMLVTYPYDKPVQTVENKETLKHLASLYANNHPSMHMGQPSCPNKSDENIPGGVMRGAEWHSHLGSMKDYSVTYGHCPEITVYTSCCYFPSAARLPSLWADNKRSLLSMLVEVHKGVHGFVKDKTGKPISKAVIVLNEGIKVQTKEGGYFHVLLAPGVHNIIAIADGYQQQHSQVFVHHDAASSVVIVFDTDNRIFGLPRELVVTVSGATMSALILTACIIWCICSIKSNRHKDGFHRLRQHHDEYEDEIRMMSTGSKKSLLSHEFQDETDTEEETLYSSKH
binds: all assays above

B2: Charged multivesicular body protein 2a (protein, UniProt O43633 1-222)
chain: MDLLFGRRKTPEELLRQNQRALNRAMRELDRERQKLETQEKKIIADIKKMAKQGQMDAVRIMAKDLVRTRRYVRKFVLMRANIQAVSLKIQTLKSNNSMAQAMKGVTKAMGTMNRQLKLPQIQKIMMEFERQAEIMDMKEEMMNDAIDDAMGDEEDEEESDAVVSQVLDELGLSLTDELSNLPSTGGSLSVAAGGKKAEAAASALADADADLEERLKNLRRD
not listed: [4]
binds: all other assays above

B3: Heavy neurofilament subunit (protein, UniProt P12036 1-1020)
chain: MMSFGGADALLGAPFAPLHGGGSLHYALARKGGAGGTRSAAGSSSGFHSWTRTSVSSVSASPSRFRGAGAASSTDSLDTLSNGPEGCMVAVATSRSEKEQLQALNDRFAGYIDKVRQLEAHNRSLEGEAAALRQQQAGRSAMGELYEREVREMRGAVLRLGAARGQLRLEQEHLLEDIAHVRQRLDDEARQREEAEAAARALARFAQEAEAARVDLQKKAQALQEECGYLRRHHQEEVGELLGQIQGSGAAQAQMQAETRDALKCDVTSALREIRAQLEGHAVQSTLQSEEWFRVRLDRLSEAAKVNTDAMRSAQEEITEYRRQLQARTTELEALKSTKDSLERQRSELEDRHQADIASYQEAIQQLDAELRNTKWEMAAQLREYQDLLNVKMALDIEIAAYRKLLEGEECRIGFGPIPFSLPEGLPKIPSVSTHIKVKSEEKIKVVEKSEKETVIVEEQTEETQVTEEVTEEEEKEAKEEEGKEEEGGEEEEAEGGEEETKSPPAEEAASPEKEAKSPVKEEAKSPAEAKSPEKEEAKSPAEVKSPEKAKSPAKEEAKSPPEAKSPEKEEAKSPAEVKSPEKAKSPAKEEAKSPAEAKSPEKAKSPVKEEAKSPAEAKSPVKEEAKSPAEVKSPEKAKSPTKEEAKSPEKAKSPEKEEAKSPEKAKSPVKAEAKSPEKAKSPVKAEAKSPEKAKSPVKEEAKSPEKAKSPVKEEAKSPEKAKSPVKEEAKTPEKAKSPVKEEAKSPEKAKSPEKAKTLDVKSPEAKTPAKEEARSPADKFPEKAKSPVKEEVKSPEKAKSPLKEDAKAPEKEIPKKEEVKSPVKEEEKPQEVKVKEPPKKAEEEKAPATPKTEEKKDSKKEEAPKKEAPKPKVEEKKEPAVEKPKESKVEAKKEEAEDKKKVPTPEKEAPAKVEVKEDAKPKEKTEVAKKEPDDAKAKEPSKPAEKKEAAPEKKDTKEEKAKKPEEKPKTEAKAKEDDKTLSKEPSKPKAEKAEKSSSTDQKDSKPPEKATEDKAAKGK
not listed: [6]
binds: all other assays above

B4: Myosin regulatory light chain 12A (protein, UniProt P19105 1-171)
chain: MSSKRTKTKTKKRPQRATSNVFAMFDQSQIQEFKEAFNMIDQNRDGFIDKEDLHDMLASLGKNPTDEYLDAMMNEAPGPINFTMFLTMFGEKLNGTDPEDVIRNAFACFDEEATGTIQEDYLRELLTTMGDRFTDEEVDELYREAPIDKKGNFNYIEFTRILKHGAKDKDD
not listed: [4]
binds: all other assays above

These are yes or no findings as the source states them, for the method shown. In cells and extracts the contact can be indirect. These calls come from enrichment with a bait or labelling near it, and not all partners need be listed.
